In publication PMC10234109 (2023):
No constants are given. Whether binding was seen depends on the method and setting. Binding calls can cover weak binding; strength is not graded here. Each block holds one binder with its values, some of them ahead of it.

Sequences of proteins named here, by UniProt entry; tags and fusion partners are left off. A change or cut given only in a name is not applied to a line headed by its entry.
UniProt Q64331: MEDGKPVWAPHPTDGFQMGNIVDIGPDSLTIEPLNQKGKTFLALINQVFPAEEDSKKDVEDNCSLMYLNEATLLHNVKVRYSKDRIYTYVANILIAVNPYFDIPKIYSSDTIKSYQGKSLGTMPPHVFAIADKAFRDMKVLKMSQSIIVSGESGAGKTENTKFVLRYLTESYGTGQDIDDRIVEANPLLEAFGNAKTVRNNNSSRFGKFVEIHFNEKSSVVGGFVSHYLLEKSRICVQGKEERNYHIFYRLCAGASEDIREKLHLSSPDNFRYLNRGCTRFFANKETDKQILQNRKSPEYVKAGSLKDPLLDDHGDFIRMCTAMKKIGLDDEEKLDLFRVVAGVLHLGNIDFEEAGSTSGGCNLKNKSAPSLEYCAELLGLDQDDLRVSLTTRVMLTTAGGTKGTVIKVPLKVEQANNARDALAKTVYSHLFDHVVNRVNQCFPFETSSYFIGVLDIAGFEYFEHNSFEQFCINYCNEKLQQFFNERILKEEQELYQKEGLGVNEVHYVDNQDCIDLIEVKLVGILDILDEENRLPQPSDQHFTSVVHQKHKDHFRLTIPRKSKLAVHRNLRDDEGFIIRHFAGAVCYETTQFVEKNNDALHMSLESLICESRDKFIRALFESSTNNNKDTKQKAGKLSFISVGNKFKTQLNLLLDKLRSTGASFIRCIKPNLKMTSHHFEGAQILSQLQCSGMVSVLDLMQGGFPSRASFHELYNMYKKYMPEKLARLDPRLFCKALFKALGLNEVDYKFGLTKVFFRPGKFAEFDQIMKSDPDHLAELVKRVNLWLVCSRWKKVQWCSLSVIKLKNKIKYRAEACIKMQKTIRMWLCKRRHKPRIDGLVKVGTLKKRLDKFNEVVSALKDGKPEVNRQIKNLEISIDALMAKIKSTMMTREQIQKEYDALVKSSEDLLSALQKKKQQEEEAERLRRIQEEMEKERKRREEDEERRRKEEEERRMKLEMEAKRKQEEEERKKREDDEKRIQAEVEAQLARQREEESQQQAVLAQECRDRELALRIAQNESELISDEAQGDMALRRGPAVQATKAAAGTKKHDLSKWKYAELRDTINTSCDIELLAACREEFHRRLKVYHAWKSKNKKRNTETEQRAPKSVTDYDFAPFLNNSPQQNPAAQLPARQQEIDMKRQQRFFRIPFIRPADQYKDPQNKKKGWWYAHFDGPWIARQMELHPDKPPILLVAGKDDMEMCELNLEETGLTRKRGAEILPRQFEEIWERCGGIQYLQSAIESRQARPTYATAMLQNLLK
UniProt P97479: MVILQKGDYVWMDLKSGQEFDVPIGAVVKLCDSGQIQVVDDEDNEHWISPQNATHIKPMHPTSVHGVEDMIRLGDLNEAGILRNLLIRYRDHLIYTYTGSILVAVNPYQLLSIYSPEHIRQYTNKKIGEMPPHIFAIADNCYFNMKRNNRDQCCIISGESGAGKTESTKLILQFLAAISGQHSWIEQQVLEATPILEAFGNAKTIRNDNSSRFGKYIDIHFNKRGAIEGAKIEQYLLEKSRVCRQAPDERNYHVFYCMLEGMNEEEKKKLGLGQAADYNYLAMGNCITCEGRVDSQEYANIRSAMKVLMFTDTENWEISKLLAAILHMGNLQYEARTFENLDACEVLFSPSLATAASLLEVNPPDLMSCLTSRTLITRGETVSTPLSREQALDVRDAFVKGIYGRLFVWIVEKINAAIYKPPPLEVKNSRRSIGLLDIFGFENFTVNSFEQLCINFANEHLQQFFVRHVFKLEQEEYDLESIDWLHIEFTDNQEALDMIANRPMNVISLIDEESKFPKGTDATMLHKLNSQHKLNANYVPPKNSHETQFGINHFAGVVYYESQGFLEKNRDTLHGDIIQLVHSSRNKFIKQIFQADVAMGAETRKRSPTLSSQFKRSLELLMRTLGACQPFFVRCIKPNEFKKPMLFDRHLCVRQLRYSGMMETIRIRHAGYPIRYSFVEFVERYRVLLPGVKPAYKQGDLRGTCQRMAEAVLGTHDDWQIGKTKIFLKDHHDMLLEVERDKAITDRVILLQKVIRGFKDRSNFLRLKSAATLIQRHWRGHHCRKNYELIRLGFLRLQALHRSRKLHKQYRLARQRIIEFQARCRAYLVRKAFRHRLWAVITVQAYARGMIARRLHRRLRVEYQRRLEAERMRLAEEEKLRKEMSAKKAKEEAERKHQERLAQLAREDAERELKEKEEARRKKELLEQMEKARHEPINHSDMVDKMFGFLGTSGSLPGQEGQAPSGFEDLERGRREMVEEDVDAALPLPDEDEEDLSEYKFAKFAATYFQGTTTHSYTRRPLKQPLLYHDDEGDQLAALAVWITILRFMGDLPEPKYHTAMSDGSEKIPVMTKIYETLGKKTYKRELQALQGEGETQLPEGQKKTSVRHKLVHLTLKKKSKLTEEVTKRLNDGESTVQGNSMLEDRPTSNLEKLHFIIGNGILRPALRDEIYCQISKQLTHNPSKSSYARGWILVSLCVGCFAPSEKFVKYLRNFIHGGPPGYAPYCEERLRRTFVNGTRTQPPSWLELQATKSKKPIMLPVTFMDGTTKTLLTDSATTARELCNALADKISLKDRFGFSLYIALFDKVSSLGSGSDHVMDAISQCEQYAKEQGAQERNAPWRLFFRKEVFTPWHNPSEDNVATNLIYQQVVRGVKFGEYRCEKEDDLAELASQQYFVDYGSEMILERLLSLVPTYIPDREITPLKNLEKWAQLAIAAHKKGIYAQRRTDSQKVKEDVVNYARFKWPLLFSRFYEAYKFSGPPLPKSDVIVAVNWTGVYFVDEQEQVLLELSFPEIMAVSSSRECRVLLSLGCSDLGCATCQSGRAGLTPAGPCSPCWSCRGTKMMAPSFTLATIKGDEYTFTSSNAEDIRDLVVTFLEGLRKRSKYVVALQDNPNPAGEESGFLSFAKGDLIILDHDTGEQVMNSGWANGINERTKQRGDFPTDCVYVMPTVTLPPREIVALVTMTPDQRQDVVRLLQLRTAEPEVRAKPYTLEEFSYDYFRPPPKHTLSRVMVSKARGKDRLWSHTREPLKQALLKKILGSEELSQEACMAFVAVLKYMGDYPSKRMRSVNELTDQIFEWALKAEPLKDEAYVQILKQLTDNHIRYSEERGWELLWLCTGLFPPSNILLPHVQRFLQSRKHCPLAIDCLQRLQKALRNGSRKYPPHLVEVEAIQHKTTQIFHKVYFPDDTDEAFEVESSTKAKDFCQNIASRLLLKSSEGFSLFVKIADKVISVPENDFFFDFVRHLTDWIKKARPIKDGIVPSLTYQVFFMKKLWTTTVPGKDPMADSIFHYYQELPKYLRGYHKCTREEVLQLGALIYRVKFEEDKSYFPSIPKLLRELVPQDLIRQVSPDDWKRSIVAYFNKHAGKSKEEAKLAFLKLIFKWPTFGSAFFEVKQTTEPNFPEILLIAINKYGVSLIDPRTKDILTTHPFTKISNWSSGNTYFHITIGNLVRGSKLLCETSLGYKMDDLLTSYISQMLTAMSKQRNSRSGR

What was measured:
Assay in all cases: NanoSPD; HeLa cells transfected with MYO10^NANOTRAP, a GFP- (or mEMERALD-) tagged bait and an mCherry-tagged prey; co-transport of the prey to filopodial tips; fixed about 24 h after transfection
[1] = target: GFP–MYO6^TAIL-A (mouse)
[2] = target: GFP–MYO6^TAIL-B (mouse) (UniProt Q64331)
[3] = target: GFP–MYO6^TAIL-C (mouse)
[4] = target: GFP–MYO7A^TAIL (UniProt P97479)

binding [1]: binds | binding [2]: binds | binding [3]: binds | binding [4]: no binding
B1: mCherry–GIPC3 (protein, UniProt Q8R5M0 1-297)
chain: MDSAAPREPGATEPPARARPRLVFRTQLAHGSPTGRIEGFTNVRELYAKIAEAFGIAPTEILFCTLNSHKVDMQKLLGGQIGLEDFIFAHVRGETKEVEVTKTEDALGLTITDNGAGYAFIKRIKEGSIINRIEAVCVGDSIEAINDHSIVGCRHYEVAKMLRELPKSQPFTLRLVQPRRAFDMIGQRSRSSKCPVEAKVSSGRETLRLRSGGAATVEEAPSDVEAAAARRVDDLLESYMGIRDPELAAAVVETARSSAGAQAFARGLDAVLGEFAFPDEFVVEVWAAIGEAHDACG

binding [4]: binds
B2: mCherry–PDZD7 (protein, UniProt E9Q9W7 1-1021)
chain: MARGFTVGFDPLGLGELSSGSLSSVSSRGHLGSDSGSTATRYLLRKQQRLLNGPSRGIRASSPMGRVILINSPIEANSDESDIIHAVRVEKSPSGRLGFSVRGGSEHGLGIFVSKVEEGSSAERAGLCVGDKITEVNGLSLESTTMGSAVRLLTSSSCLHMMVRRMGRVPGIKFSKEKTTWVDVVNRRLVVEKCSSTPSDRSSEDGVRRIVHLYTTSDDFCLGFNIRGGKEFGLGIYVSKVDHGGLAEENGIKVGDQVLAANGVRFDDISHSQAVEVLKGQTHIMLTIKETGRYPAYKEMVSEYCWLDRLSNGVLQQLSPASESSSSVSSYASSAPCSSGSLPSDRMDVCLGPEEPTSHGPGWGRADTAMQTEPDLDSRVETWCSVRPTVILRDTAIRSDGPSSTRHLDSALSESPKTALLLALSRPRTPITRSQSHLTLWEEKKQRKKEKSGSSGEKGALQRSKTLMNLFFKGGRQGRPAGDGHREAWTLDSRSPTKVRPRLDLEKAGSVGPVQKFVTWRLRRDRERGRALLSARSGSPSGQAPTVNEQVQAWESRRPLIQDLARRLLTDDEVLAVTRHCSRYVHEGGVEDLVRPLLAILDRPTKLLLLRDIRSVVAPTDLGRFDSMVMPVELEAFEALKSRAVGPSALRPTRQDTPPKRHLITPVPDSRGGFYLLPVNSSEDEDGEIREKLGVLKVSLGASAPHHKGIPPLQDVPVDAFSLRRGACAPPPQPPPVAPRPPRPNWLLTEPLSREDTQQNQSQTPAQSCSRSRSRSRSRSHSRGQGKSPGRRRSPSPAPIATAATANGRYHRPRKARPLLPRLLDGQVAKVGARQGPLENGRIAEEAVGNVSTGALRTITLSKMKQSLGISISGGIESKVQPMVKIEKIFPGGAAFLCGDLQAGFELVAVDGESLEQVTHQRAVDTIRRAYRNKAREPMELVVRVPGPGLLPLASDLRVVKDQSLAPDCPSALGPVDDARILTQLPPPEARQLQQSLSSALKVPQSIPKLSPILKDPHDPS
